Laboratory results published in article PMC10482377, “Septum site placement in Mycobacteria – identification and characterisation of mycobacterial homologues of Escherichia coli MinD” (Microbiology, 2023).

Amino acid sequences for entries named in this document (tags omitted). A change or cut given only in a name is not applied to a line headed by its entry.
UniProt A0QYQ4: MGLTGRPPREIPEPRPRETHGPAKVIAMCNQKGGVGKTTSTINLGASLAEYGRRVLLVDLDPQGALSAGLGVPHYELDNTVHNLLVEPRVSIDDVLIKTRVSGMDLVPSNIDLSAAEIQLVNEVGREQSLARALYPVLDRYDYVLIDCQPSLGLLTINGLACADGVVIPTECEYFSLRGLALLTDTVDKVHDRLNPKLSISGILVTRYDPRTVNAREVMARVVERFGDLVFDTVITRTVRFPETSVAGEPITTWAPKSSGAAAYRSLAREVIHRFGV
UniProt A0R7J3: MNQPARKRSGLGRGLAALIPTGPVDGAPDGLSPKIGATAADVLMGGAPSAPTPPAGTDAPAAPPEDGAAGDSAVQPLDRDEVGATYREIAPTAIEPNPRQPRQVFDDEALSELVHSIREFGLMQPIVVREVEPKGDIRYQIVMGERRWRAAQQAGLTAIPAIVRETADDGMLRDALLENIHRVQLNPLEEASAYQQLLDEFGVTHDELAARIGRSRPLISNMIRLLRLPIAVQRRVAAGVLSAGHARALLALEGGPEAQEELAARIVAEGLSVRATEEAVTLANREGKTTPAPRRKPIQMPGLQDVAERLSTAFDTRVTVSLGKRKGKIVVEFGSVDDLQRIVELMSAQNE

Biological target: MSMEG_3743 (MPFC bait fusion) (M. smegmatis) (UniProt A0QYQ4)
Assay: split reporter; Mycobacterial Protein Fragment Complementation (MPFC); bait in pUAB400 and prey in pUAB300 co-transformed in M. smegmatis mc2155; growth on plates with 20 µg/ml trimethoprim

Question: For “Ms ParB (MSMEG_6938) (MPFC prey fusion) (from UniProt A0R7J3)”, which binding is on record?
Answer: binds

These are yes or no findings as the source states them, for the method shown. Binding seen in cells or lysates may run through a third protein. Binding calls can cover weak binding; strength is not graded here.
